Six molecules from article PMC7070008 can be followed below.

Chains of the proteins cited; added tags and fusions are not shown. Lines headed by an entry give the natural chain unless they say otherwise; changes in a name come on top.
UniProt P15208: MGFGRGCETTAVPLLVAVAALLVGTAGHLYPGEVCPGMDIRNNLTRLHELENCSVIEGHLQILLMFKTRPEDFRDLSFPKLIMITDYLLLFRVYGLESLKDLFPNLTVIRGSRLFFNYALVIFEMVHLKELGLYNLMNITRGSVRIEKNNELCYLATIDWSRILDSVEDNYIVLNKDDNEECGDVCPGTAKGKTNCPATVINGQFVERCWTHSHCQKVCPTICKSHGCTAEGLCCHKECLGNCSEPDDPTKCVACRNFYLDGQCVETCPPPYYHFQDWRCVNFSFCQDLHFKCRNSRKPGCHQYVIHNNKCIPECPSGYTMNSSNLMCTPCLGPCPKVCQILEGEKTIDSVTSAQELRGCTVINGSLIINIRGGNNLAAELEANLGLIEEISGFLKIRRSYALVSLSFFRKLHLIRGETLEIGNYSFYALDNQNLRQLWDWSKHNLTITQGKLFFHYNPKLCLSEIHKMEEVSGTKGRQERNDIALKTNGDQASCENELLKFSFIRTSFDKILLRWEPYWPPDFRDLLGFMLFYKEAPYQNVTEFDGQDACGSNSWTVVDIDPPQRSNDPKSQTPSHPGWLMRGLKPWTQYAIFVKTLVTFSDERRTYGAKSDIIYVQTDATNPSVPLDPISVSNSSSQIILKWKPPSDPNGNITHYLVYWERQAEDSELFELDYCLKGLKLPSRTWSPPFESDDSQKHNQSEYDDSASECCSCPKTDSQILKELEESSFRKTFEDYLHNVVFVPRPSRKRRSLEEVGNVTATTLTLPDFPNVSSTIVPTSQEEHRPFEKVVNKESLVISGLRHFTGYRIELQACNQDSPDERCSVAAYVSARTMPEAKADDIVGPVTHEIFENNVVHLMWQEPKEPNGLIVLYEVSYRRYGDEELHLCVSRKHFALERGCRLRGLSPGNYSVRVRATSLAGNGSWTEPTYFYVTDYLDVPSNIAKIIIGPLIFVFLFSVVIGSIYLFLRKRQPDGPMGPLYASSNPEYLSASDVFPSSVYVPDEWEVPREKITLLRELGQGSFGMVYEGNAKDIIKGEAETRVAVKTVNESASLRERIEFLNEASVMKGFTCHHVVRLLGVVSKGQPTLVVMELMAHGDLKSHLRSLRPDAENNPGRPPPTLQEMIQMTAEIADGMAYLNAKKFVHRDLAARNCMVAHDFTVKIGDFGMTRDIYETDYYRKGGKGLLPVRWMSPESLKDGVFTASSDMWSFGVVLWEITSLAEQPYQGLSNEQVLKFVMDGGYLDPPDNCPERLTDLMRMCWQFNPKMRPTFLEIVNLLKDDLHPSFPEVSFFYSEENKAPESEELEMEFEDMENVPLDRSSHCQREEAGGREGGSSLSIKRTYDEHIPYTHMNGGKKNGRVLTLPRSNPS
UniProt P11531: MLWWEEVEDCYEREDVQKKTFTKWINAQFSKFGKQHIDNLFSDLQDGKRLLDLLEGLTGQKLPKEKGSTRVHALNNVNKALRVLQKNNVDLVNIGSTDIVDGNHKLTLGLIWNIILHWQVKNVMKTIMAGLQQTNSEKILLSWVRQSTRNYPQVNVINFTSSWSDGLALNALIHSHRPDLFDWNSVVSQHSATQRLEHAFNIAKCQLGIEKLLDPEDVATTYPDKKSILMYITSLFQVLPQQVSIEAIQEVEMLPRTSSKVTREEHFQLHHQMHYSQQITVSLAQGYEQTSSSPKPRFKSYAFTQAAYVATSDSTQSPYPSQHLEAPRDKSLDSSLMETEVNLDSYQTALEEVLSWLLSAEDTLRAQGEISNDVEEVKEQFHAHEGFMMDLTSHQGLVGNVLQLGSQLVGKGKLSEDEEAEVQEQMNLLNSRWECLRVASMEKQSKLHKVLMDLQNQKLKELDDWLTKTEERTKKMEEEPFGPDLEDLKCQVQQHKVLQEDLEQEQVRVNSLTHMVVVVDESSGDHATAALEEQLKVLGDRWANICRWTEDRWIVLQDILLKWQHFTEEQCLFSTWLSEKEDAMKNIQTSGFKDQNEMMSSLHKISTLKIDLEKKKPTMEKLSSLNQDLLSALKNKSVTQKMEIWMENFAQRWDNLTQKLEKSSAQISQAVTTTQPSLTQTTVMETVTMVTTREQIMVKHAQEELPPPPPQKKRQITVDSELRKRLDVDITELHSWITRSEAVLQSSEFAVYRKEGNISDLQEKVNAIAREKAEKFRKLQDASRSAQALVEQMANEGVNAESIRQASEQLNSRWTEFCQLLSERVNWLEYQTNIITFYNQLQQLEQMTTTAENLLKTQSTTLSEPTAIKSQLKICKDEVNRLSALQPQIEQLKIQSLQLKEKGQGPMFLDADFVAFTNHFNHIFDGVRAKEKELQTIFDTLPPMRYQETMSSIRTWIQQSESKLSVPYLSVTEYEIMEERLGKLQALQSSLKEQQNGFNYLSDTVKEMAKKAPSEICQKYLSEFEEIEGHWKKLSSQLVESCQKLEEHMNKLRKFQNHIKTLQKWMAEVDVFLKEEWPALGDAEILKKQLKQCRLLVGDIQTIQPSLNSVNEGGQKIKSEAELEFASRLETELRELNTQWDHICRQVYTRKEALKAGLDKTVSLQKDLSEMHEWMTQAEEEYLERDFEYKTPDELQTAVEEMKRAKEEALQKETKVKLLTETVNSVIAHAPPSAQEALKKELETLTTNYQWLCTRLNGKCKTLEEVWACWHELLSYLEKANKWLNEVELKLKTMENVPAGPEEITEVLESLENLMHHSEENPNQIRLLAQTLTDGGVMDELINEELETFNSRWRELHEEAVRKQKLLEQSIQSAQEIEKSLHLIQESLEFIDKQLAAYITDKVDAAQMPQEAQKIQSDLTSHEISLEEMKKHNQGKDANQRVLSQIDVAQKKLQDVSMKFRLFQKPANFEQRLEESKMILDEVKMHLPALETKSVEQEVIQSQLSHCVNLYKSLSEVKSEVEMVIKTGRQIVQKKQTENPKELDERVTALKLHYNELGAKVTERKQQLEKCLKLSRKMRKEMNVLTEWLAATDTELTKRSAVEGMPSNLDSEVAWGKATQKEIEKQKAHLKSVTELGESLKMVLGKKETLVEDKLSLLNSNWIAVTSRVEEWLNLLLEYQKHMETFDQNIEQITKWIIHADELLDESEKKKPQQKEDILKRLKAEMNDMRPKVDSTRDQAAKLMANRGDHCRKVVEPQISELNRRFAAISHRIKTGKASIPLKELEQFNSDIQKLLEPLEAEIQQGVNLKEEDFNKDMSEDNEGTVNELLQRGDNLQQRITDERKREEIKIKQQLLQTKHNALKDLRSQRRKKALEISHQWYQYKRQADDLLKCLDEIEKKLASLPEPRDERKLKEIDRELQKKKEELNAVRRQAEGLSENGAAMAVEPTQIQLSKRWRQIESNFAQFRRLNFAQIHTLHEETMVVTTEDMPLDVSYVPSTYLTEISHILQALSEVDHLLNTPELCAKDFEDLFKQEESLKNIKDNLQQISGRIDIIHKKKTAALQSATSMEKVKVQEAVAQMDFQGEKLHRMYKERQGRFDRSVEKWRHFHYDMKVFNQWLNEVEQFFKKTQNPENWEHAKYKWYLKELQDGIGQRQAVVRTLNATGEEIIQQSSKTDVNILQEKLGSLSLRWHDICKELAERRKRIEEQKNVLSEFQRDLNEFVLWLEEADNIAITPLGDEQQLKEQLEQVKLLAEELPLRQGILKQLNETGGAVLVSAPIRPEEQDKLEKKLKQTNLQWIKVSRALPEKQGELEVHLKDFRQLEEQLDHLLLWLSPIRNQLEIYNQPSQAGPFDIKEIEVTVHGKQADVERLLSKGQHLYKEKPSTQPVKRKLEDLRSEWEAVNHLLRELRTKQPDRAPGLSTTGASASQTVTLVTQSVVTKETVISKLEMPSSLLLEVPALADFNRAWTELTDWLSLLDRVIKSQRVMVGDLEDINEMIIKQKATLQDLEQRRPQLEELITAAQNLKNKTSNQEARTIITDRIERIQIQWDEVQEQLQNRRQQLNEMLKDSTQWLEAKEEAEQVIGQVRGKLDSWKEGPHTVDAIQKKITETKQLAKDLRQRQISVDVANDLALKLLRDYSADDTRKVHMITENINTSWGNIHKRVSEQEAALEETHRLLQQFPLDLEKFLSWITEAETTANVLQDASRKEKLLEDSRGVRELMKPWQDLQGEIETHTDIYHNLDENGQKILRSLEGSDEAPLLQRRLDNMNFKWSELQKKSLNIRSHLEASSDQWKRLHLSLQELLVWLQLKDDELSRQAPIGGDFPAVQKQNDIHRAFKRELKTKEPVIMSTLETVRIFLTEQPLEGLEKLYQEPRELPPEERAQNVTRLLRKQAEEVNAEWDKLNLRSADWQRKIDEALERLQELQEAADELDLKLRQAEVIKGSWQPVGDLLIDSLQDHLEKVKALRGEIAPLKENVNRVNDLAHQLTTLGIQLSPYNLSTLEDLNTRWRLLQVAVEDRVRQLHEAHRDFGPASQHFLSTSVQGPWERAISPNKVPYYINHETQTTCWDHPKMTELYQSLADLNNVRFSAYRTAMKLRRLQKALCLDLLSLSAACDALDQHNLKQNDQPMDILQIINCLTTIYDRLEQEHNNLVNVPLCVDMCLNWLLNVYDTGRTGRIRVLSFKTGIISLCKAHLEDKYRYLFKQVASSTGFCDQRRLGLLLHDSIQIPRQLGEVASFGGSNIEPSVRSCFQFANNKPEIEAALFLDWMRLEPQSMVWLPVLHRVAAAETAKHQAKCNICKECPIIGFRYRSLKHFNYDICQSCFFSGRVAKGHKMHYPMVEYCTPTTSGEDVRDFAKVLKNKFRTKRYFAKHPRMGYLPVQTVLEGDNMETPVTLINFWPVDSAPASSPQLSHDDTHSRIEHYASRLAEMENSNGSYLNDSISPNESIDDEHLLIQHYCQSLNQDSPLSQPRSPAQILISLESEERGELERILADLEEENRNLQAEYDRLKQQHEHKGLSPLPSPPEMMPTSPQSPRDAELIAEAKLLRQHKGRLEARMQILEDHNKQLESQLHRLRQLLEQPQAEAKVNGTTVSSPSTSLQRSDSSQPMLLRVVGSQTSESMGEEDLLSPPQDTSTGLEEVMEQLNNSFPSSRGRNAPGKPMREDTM

No constants are given. Whether binding was seen depends on the method and setting. Binding seen in cells or lysates may run through a third protein. Some binding calls cover weakened binding; strength is not graded here. For part of these data: Sequences can lack the tags named with a protein.

Experiment [1] deals with T1, plakoglobin (γ-catenin) (mouse (endogenous in mouse skeletal muscle, heart and liver)) (UniProt Q02257).
T1 sequence: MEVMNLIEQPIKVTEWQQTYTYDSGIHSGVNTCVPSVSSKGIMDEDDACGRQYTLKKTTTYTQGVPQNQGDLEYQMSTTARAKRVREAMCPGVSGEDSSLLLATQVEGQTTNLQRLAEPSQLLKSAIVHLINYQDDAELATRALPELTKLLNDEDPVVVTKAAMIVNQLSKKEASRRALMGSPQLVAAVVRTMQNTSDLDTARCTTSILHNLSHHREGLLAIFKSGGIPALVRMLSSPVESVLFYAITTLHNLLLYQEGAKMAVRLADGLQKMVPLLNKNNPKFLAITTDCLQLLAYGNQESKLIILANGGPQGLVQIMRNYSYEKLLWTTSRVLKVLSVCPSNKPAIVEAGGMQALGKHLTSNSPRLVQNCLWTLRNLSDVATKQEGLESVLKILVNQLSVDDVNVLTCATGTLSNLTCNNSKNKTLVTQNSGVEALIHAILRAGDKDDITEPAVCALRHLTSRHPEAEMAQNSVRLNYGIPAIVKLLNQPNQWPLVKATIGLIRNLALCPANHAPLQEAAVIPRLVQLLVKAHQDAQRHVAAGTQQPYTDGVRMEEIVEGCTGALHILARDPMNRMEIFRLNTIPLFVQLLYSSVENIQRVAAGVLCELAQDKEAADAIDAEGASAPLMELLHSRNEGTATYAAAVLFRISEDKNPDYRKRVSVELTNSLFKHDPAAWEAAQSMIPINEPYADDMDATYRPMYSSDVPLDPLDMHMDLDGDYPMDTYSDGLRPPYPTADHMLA
The experiment can be described thus: co-IP; anti-plakoglobin from fraction #16 of a 10–40% glycerol gradient of the membrane-cytoskeleton fraction of mouse muscle; immunoblotting. Background: A western blot detects proteins with antibodies after separation by electrophoresis.

The target of experiment [2] is T2, 6His-plakoglobin (UniProt P14923).
T2 sequence: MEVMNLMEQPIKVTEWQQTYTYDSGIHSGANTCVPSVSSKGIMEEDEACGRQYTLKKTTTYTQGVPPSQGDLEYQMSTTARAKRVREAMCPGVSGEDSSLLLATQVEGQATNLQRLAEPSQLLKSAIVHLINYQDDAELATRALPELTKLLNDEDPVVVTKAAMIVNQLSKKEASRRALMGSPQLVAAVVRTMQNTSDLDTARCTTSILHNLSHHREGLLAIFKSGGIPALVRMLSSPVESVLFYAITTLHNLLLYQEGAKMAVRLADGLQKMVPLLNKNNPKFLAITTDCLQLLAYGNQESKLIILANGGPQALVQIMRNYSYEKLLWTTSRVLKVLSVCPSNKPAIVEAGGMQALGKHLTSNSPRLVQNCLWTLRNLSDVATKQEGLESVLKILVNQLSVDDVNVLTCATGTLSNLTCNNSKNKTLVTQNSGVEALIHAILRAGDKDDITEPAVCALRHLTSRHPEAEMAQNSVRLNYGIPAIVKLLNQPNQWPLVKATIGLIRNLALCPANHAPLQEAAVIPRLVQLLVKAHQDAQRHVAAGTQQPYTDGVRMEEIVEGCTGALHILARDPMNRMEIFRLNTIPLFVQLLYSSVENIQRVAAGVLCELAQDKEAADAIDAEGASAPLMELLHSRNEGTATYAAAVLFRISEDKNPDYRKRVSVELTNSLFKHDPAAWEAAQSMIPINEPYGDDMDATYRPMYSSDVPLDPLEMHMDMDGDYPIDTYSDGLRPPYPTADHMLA
In words: pull-down; 6His-plakoglobin electroporated into mouse TA muscle, Nickel column, bound proteins eluted with a histidine gradient (50–250 mM), immunoblotting.

The target of experiment [3] is T1, plakoglobin (γ-catenin) (mouse (endogenous in mouse skeletal muscle, heart and liver)). In words: co-IP; coimmunoprecipitation in mouse heart and liver (Supplementary Fig. 2).
Experiment [4] has the same target. The experiment can be described thus: co-IP; plakoglobin immunoprecipitation from glycerol gradient fractions of membrane extracts of muscles from WT or MKR mice expressing shLacz or 6His-plakoglobin, mice injected with glucose.
Experiment [5] shares this target. The experiment can be described thus: co-IP; plakoglobin immunoprecipitation from the high MW protein peak of the gel filtration of mouse muscle; bound proteins detected by immunoblotting. (In general: Size exclusion chromatography separates by hydrodynamic size, large species first.)
For experiment [6] the target is unchanged. The experiment can be described thus: co-IP; plakoglobin immunoprecipitation from muscle membrane extracts of fed or fasted (2 days) mice treated with colchicine or vehicle; immunoblotting.
Experiment [7] deals with T3, full-length (FL) plakoglobin (UniProt P14923).
T3 sequence: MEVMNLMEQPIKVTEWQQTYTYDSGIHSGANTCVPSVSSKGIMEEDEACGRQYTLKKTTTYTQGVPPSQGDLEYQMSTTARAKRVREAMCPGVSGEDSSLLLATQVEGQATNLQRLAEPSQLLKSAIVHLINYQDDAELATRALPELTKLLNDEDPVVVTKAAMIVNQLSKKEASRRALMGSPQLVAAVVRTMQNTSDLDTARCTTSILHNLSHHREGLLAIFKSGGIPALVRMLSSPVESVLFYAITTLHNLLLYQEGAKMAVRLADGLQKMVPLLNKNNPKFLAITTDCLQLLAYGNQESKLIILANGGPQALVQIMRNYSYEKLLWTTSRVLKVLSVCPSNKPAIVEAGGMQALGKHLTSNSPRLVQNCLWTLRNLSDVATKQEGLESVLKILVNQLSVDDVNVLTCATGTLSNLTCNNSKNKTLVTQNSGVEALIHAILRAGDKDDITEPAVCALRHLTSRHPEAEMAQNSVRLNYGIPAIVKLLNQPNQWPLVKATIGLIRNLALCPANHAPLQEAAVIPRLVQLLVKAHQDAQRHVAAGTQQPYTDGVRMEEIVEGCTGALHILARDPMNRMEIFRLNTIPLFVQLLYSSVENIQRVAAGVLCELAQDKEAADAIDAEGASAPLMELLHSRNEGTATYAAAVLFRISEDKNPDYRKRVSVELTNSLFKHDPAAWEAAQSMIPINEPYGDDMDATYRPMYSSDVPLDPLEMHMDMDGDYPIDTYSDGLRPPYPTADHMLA
The experiment can be described thus: pull-down; 6His-tagged FL plakoglobin and 6His-V5-tagged truncation mutants purified from transfected mouse muscles on a Nickel column with a histidine gradient; immunoblotting and densitometric protein ratios.

Experiment [8] concerns the target T1, plakoglobin (γ-catenin) (mouse (endogenous in mouse skeletal muscle, heart and liver)). In words: co-IP; plakoglobin immunoprecipitation from membrane extracts of muscles of fed mice, then incubation in vitro with synthetic peptides or scrambled control, 4 °C, 1 h; immunoblotting.

In the case of “insulin receptor (from UniProt P15208 28-748; P15208 753-1372)”, the binding result in experiment [1], in experiment [2], in experiment [3], in experiment [4], in experiment [5] and in experiment [6] was “binds” each time. The binding result in experiment [7] was “binds”.

In the case of dystrophin (from UniProt P11531 1-3678), the binding result in experiment [6] and in experiment [7] was “binds” in each case.

B1: vinculin (protein, UniProt Q64727 1-1066)
chain: MPVFHTRTIESILEPVAQQISHLVIMHEEGEVDGKAIPDLTAPVAAVQAAVSNLVRVGKETVQTTEDQILKRDMPPAFIKVENACTKLVQAAQMLQSDPYSVPARDYLIDGSRGILSGTSDLLLTFDEAEVRKIIRVCKGILEYLTVAEVVETMEDLVTYTKNLGPGMTKMAKMIDERQQELTHQEHRVMLVNSMNTVKELLPVLISAMKIFVTTKNSKNQGIEEALKNRNFTVEKMSAEINEIIRVLQLTSWDEDAWASKDTEAMKRALASIDSKLNQAKGWLRDPNASPGDAGEQAIRQILDEAGKVGELCAGKERREILGTCKMLGQMTDQVADLRARGQGASPVAMQKAQQVSQGLDVLTAKVENAARKLEAMTNSKQSIAKKIDAAQNWLADPNGGPEGEEQIRGALAEARKIAELCDDPKERDDILRSLGEIAALTSKLGDLRRQGKGDSPEARALAKQVATALQNLQTKTNRAVANSRPAKAAVHLEGKIEQAQRWIDNPTVDDRGVGQAAIRGLVAEGHRLANVMMGPYRQDLLAKCDRVDQLTAQLADLAARGEGESPQARALASQLQDSLKDLKAQMQEAMTQEVSDVFSDTTTPIKLLAVAATAPPDAPNREEVFDERAANFENHSGRLGATAEKAAAVGTANKSTVEGIQASVKTARELTPQVISAARILLRNPGNQAAYEHFETMKNQWIDNVEKMTGLVDEAIDTKSLLDASEEAIKKDLDKCKVAMANIQPQMLVAGATSIARRANRILLVAKREVENSEDPKFREAVKAASDELSKTISPMVMDAKAVAGNISDPGLQKSFLDSGYRILGAVAKVREAFQPQEPDFPPPPPDLEQLRLTDELAPPKPPLPEGEVPPPRPPPPEEKDEEFPEQKAGEVINQPMMMAARQLHDEARKWSSKGNDIIAAAKRMALLMAEMSRLVRGGSGTKRALIQCAKDIAKASDEVTRLAKEVAKQCTDKRIRTNLLQVCERIPTISTQLKILSTVKATMLGRTNISDEESEQATEMLVHNAQNLMQSVKETVREAEAASIKIRTDAGFTLRWVRKTPWYQ
In the case of B1, the binding result in experiment [2] is listed as “binds”.

B2: β-dystroglycan (protein, UniProt Q62165 652-893)
chain: SIVVEWTNNTLPLEPCPKEQIIGLSRRIADENGKPRPAFSNALEPDFKALSIAVTGSGSCRHLQFIPVAPPSPGSSAAPATEVPDRDPEKSSEDDVYLHTVIPAVVVAAILLIAGIIAMICYRKKRKGKLTLEDQATFIKKGVPIIFADELDDSKPPPSSSMPLILQEEKAPLPPPEYPNQSMPETTPLNQDTVGEYTPLRDEDPNAPPYQPPPPFTAPMEGKGSRPKNMTPYRSPPPYVPP
modifications: glycosylated form detected (glycosylated β-dystroglycan)
Take B2: the binding entry in experiment [4], in experiment [6], in experiment [7] and in experiment [8] was “binds” throughout.

B3: caveolin-1 (protein, UniProt P49817 1-178)
chain: MSGGKYVDSEGHLYTVPIREQGNIYKPNNKAMADEVTEKQVYDAHTKEIDLVNRDPKHLNDDVVKIDFEDVIAEPEGTHSFDGIWKASFTTFTVTKYWFYRLLSTIFGIPMALIWGIYFAILSFLHIWAVVPCIKSFLIEIQCISRVYSIYVHTFCDPLFEAIGKIFSNIRISTQKEI
B3: the binding result in experiment [2] and in experiment [5] was “binds” in each case.

B4: tyrosine kinase receptor MuSK (receptor, UniProt Q61006 22-868)
chain: EKLPKAPVITTPLETVDALVEEVATFMCAVESYPQPEISWTRNKILIKLFDTRYSIRENGQLLTILSVEDSDDGIYCCIANNGVGGAVESCGALQVKMKPKITRPPINVKIIEGLKAVLPCTTMGNPKPSVSWIKGDNALRENSRIAVLESGSLRIHNVQKEDAGQYRCVAKNSLGTAYSKLVKLEVEVFARILRAPESHNVTFGSFVTLRCTAIGIPVPTISWIENGNAVSSGSIQESVKDRVIDSRLQLFITKPGLYTCIATNKHGEKFSTAKAAATVSIAEWSKSQKDSQGYCAQYRGEVCDAVLAKDALVFFNTSYRDPEDAQELLIHTAWNELKAVSPLCRPAAEALLCNHLFQECSPGVVPTPMPICREYCLAVKELFCAKEWQAMEGKAHRGLYRSGMHLLPVPECSKLPSMHRDPTACTRLPYLDYKKENITTFPSITSSRPSADIPNLPASTSSFAVSPAYSMTVIISIVSSFALFALLTIATLYCCRRRKEWKNKKRESTAVTLTTLPSELLLDRLHPNPMYQRMPLLLNPKLLSLEYPRNNIEYVRDIGEGAFGRVFQARAPGLLPYEPFTMVAVKMLKEEASADMQADFQREAALMAEFDNPNIVKLLGVCAVGKPMCLLFEYMAYGDLNEFLRSMSPHTVCSLSHSDLSTRARVSSPGPPPLSCAEQLCIARQVAAGMAYLSERKFVHRDLATRNCLVGETMVVKIADFGLSRNIYSADYYKADGNDAIPIRWMPPESIFYNRYTTESDVWAYGVVLWEIFSYGLQPYYGMAHEEVIYYVRDGNILACPENCPLELYNLMRLCWSKLPADRPSFCSIHRILQRMCERAEGTVGV
Take B4: the binding result in experiment [1] and in experiment [3] was “no binding” throughout.
